The target in this assay is T1, NLRP11-eGFP (stable HeLa FlpIn T-REx line) (human) (UniProt P59045).
T1 sequence: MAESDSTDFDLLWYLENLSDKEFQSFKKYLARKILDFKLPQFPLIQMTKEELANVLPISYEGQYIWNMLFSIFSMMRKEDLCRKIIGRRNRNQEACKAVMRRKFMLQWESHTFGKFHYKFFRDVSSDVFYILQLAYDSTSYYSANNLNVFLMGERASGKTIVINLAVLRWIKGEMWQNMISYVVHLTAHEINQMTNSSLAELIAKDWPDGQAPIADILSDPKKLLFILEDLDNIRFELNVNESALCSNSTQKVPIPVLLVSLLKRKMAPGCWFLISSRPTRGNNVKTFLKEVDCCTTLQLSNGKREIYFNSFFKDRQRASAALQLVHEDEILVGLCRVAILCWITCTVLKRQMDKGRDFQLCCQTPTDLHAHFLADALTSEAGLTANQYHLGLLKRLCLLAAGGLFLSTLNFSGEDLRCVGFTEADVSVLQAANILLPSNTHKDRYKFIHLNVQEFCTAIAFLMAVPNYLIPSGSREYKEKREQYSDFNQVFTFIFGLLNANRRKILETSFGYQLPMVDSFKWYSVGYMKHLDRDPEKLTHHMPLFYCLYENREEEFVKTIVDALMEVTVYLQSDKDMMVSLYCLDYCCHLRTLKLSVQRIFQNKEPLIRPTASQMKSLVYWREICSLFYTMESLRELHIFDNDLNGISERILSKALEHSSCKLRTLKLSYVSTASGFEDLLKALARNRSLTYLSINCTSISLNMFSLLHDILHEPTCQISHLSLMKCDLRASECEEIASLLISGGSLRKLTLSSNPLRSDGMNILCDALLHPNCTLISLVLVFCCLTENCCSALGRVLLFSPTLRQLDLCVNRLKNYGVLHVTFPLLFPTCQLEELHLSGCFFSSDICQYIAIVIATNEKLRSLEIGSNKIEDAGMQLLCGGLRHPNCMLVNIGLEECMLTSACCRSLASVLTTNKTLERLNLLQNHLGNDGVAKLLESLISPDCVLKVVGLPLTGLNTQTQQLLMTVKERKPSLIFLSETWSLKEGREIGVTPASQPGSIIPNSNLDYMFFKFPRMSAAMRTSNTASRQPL
The assay is described as follows: affinity purification with mass spectrometry; GFP-Trap agarose precipitation of NLRP11-eGFP (or eGFP as control) from doxycycline-induced HeLa FlpIn cells; Triton buffer lysate, 4°C, 3 h; on-bead trypsin digest, nanoLC-MS/MS.

The chains behind the UniProt entries cited, without tags or fusion partners.
UniProt O00571: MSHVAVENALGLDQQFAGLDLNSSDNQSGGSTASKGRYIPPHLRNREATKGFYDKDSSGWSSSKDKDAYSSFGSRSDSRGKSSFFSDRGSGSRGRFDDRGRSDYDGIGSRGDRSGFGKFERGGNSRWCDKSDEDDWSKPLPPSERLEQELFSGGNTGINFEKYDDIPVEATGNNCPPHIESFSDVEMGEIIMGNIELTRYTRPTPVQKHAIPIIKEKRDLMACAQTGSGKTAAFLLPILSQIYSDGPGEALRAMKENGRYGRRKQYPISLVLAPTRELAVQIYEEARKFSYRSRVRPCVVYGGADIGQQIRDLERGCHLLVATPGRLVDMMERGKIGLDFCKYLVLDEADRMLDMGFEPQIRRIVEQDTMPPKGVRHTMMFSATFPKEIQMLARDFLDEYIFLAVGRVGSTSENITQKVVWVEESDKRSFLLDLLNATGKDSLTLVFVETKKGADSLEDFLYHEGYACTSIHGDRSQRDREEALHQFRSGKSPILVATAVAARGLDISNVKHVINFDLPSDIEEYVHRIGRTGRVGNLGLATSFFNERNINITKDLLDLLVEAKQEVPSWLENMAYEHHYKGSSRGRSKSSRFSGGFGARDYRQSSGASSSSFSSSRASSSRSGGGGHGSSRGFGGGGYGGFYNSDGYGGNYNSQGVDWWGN

No constants are given. Whether binding was seen depends on the method and setting. In cells and extracts the contact can be indirect. A yes stands for co-enrichment or nearness to the bait. Other partners may have been found. Sequences can lack the tags named with a protein.

As for “DDX3X (endogenous, HeLa) (from UniProt O00571 1-662)”, the binding result is recorded as “binds”.
